Results: PubChem BioAssay AID720540 (National Center for Advancing Translational Sciences (NCATS), 2013)
About 460 (35%) of roughly 1,300 compounds were called active. The inconclusive results got no clear call from the source; some entries with a clear call stand among them for comparison. The call rests on the fitted dose curve; in most records, active means well fitted inhibition curve with a large enough effect; inconclusive means small, poorly fitted or top-dose-only effect; inactive means flat fitted curve, though single readings scatter. Potencies of inconclusive entries are doubtful fits and often do not repeat.

Chains of the proteins cited; added tags and fusions are not shown. Lines headed by an entry give the natural chain unless they say otherwise; changes in a name come on top.
UniProt O00167: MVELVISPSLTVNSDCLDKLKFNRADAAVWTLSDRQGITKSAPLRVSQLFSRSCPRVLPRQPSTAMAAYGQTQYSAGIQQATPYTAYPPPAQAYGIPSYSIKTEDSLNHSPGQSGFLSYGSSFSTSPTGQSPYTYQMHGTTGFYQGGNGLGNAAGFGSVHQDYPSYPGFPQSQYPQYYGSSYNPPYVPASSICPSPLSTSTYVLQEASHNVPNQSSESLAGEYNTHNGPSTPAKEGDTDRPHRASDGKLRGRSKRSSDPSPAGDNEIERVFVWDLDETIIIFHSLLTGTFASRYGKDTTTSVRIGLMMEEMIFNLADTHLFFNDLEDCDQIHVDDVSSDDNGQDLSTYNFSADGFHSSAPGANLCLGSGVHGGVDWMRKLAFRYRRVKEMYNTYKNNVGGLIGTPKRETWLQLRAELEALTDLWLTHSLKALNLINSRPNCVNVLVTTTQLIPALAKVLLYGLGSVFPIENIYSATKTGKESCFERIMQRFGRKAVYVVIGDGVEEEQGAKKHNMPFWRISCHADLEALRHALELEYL

Biological target: Protein phosphatase EYA2 (Homo sapiens) (UniProt O00167)
Assay: qHTS for Inhibitors of the Phosphatase Activity of Eya2: Confirmatory Assay for Cherry-picked Compounds; further: nearly all actives have a fitted effect of over 65% in size;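 on activity change, negative = inhibition: 0% = DMSO wells and -100% = EGTA control giving full inhibition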
Settings: purified EYA2 phosphatase activity, qHTS confirmation; activity change, negative = inhibition: at 46.1 µM (top of the series)
Outline: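 Eya2 (0.2 uM working solution) preincubated 10 min at room temperature with compound in pH 7.5 HEPES buffer with MgCl2, BSA, DTT. OMFP added (50 uM working solution), 10 min more; fluorescence 485/525 nm, normalized to EGTA and DMSO.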
Potency means the concentration at half of the fitted maximal effect.

Potency, inconclusive:
O=C(Nc1cccc(S(=O)(=O)N2CCOCC2)c1)c1ccc(Cl)nc1 19 µM [inhibitor, partial curve]
COc1ccc(N2CCN(C(c3cccs3)C(C)NS(=O)(=O)c3ccccc3)CC2)cc1 (stereo unspecified) 8.49 µM [inhibitor, partial curve]
COc1ccccc1N1CCN(/N=C/c2cc([N+](=O)[O-])ccc2Cl)CC1 19 µM [inhibitor, partial curve]
COC(=O)/C=C1\OCc2cc(OC)c(OC)cc21 19 µM [inhibitor, partial curve]
CCN(CC)C(=O)c1ccc(-c2nnc(Nc3ccc(C(=O)NC)cc3)c3ccccc23)cc1 16.9 µM [inhibitor, partial curve]
COc1ccccc1N1CCN(C(=O)c2ccc3c(=O)n4c(nc3c2)CCCCC4)CC1 19 µM [inhibitor, partial curve]
Cc1c(OCC(=O)NCC2CCC(C(=O)O)CC2)ccc2c(-c3ccccc3)cc(=O)oc12 (stereo unspecified) 19 µM [inhibitor, partial curve]
COc1cc(NS(=O)(=O)c2ccc(NC(=S)NC(=O)/C=C/c3ccco3)cc2)ncn1 19 µM [inhibitor, partial curve]
NC(=O)c1nn2c(C(F)(F)F)cc(-c3ccccc3)nc2c1Br 10.7 µM [inhibitor, partial curve]
COc1ccc(N(C)S(=O)(=O)c2cccc(C(=O)Nc3nc4ccccc4[nH]3)c2)cc1 19 µM [inhibitor, partial curve]
COc1cc(C(=O)Nc2cccc(NC(=O)c3cccs3)c2)cc(OC)c1OC 19 µM [inhibitor, single point]
O=c1cc(-c2ccccc2Cl)oc2c(NS(=O)(=O)c3ccccc3OC(F)(F)F)ccc(O)c12 13.5 µM [inhibitor, partial curve]
Cc1csc(NC(=O)c2cc(-c3ccco3)nc3ccccc23)n1 16.9 µM [inhibitor, partial curve]
CCC(=O)Nc1ccc(C(=O)COC(=O)c2nc3nccc(C)n3n2)cc1 9.53 µM [inhibitor, partial curve]
Cc1oc2c(cc(NS(=O)(=O)c3ccc4c5c(cccc35)C(=O)N4)c3ccccc32)c1C(=O)OC(C)C 19 µM [inhibitor, single point]
C=CCNC(=O)c1cn(CC)c2cc(N3CCN(C(=O)c4ccco4)CC3)c(F)cc2c1=O 21.3 µM [inhibitor, partial curve]
O=C(O)CCCCCNc1nc(-c2ccccc2)nc2ccccc12 19 µM [inhibitor, partial curve]
CCNC(=O)/C(C#N)=C/c1c(N2CCN(c3ccccc3)CC2)nc2c(C)cccn2c1=O 4.26 µM [inhibitor, full curve, poor fit]
O=c1[nH]c2cc3ccccc3cc2nc1-c1nnnn1C1CCCC1 10.7 µM [inhibitor, partial curve]
CC1(Br)C(Sc2ccccc2[N+](=O)[O-])=Nc2ccccc21 (stereo unspecified) 19 µM [inhibitor, partial curve]
COc1ccc(S(=O)(=O)N2CCCCC2)cc1NC(=O)c1[nH]c(C)c(C(C)=O)c1C 13.5 µM [inhibitor, partial curve]
CN1C(=O)/C(=C/c2ccc(O)c([N+](=O)[O-])c2)N(C)C1=S 19 µM [inhibitor, partial curve]

Pulled by compound from the list above (three):
Potency, inconclusive:
COc1ccccc1N1CCN(/N=C/c2cc([N+](=O)[O-])ccc2Cl)CC1 19 µM [inhibitor, partial curve]
O=C(Nc1cccc(S(=O)(=O)N2CCOCC2)c1)c1ccc(Cl)nc1 19 µM [inhibitor, partial curve]
O=c1cc(-c2ccccc2Cl)oc2c(NS(=O)(=O)c3ccccc3OC(F)(F)F)ccc(O)c12 13.5 µM [inhibitor, partial curve]

Following part:

Potency, active:
O=c1c(O)cccc2cc(O)c(O)c(O)c12 8.49 µM
Cc1n[nH]c(=S)n(NC(=O)CC(=O)Nn2c(=S)[nH]nc(C)c2=O)c1=O 1.51 µM
Cc1cc(C)c(NC(=O)CSc2ccc(-c3ccccn3)nn2)c(C)c1 6.75 µM
COc1ccc(-n2c(SCC(=O)Nc3cc(C(=O)O)ccc3C)nc3ccccc3c2=O)cc1Cl 8.49 µM
O=C(Nc1ccc(F)cc1)c1ccc2[nH]c(=O)c(=O)[nH]c2c1 4.78 µM
CN(C)c1ccc(/C=C2\C(Cl)=Cc3ccccc32)cc1 5.36 µM
CN(C)c1ccc2c(c1)C(=NO)c1ccccc1-2 9.53 µM
O=C(O)c1ccccc1-c1ccccc1C(=O)Nc1ccc2c(c1)[nH]c(=O)c1ccccc12 7.57 µM
Cc1cc(C)n2nc(SCCOc3ccccc3F)nc2n1 15.1 µM
O=C(CSc1nnc2c3ccccc3c3ccccc3c2n1)Nc1ccccc1F 7.57 µM
Clc1cccc(-c2ccc(CNCc3ccccn3)o2)c1 19 µM
O=[N+]([O-])c1ccc(/C=C2\C=Cc3ccccc32)cc1 4.78 µM

Activity change, negative = inhibition, inconclusive:
COc1cc2c(=O)[nH]c3cc([N+](=O)[O-])ccc3c2cc1[N+](=O)[O-] -32.7% [inhibitor]

Activity change, negative = inhibition, inactive:
COc1ccc(NC(=O)c2ccc(CN3CCc4ccccc4C3)cc2)c(OC)c1 -24.9%
O=C(CSc1nnc2c(Cl)cc(Cl)cn12)NC1CCS(=O)(=O)C1 (stereo unspecified) -4.62%
COCc1nnc(NC(=O)c2ccc(S(=O)(=O)N3CCOCC3)cc2)o1 -28.2%
Cc1ccc(S(=O)(=O)Nc2c(C)n(C)n(-c3ccccc3)c2=O)cc1C(=O)OC(C)C(=O)N(C)c1ccccc1 (stereo unspecified) -22.5%
Cc1cc(C(=O)COC(=O)c2ccc(O)cc2)c(C)n1CCc1ccc(F)cc1 -22.6%
O=C(Cc1ccccc1F)Nc1cccc(S(=O)(=O)N2CCCCC2)c1 -11.9%
Cn1c(=O)c2[nH]c(COc3ccccc3)nc2n(C)c1=O -12.9%
CCOc1cccc(CN2CCC(CCC(=O)NC3CC3)CC2)c1O -6.6%
Clc1ccc(-n2nnnc2-c2cnc3ccccc3c2-c2ccccc2)cc1 -27.9%
COc1ccc(-c2nc(N)ncc2-c2csc(C)n2)c(O)c1 -21.3%
CNC(=O)c1cc2c(cn1)[nH]c1ccccc12 -20.3%
